# The list shows only some results of the screen, not a fair sample: it is rich in T/C values a quarter to a half above the control, in often repeated tests (any T/C) and in doses without a T/C. Other doses and runs of a compound stand elsewhere. T/C gives the treated animals as a percentage of the vehicle group. Some entries give survivors of the animals treated and no T/C: the source holds a T/C of zero for them, seemingly a mark for toxic or unscored doses. Some doses without a T/C left all or most animals alive at the check, yet need not have been tolerated: survival well below the control is almost never listed, so the zero probably covers shortened survival too. Survivors were counted at the toxicity check, usually on the fifth day, unless a day is given; later deaths do not show. Schedule codes are those of the source, read here as Q, the interval in days (D) or hours (H), X, the number of doses. Some schedule codes hold Z or #, which are not explained here. For survival time, the PubChem record calls one and a half times the control and up active, and a quarter to a half above the control has no call in these data; cut-offs in other NCI protocols can differ.
# Test system: L1210 leukemia ip in BDF1 mice, survival T/C
# Test: NCI In Vivo Anticancer Drug Screen. Data for tumor model L1210 Leukemia (intraperitoneal) in B6D2F1 (BDF1) mice
# Conditions: T/C endpoint: mean survival time, higher T/C = longer survival
# [1] = dose: 200.0 mg/kg/injection, schedule: Q01DX001 (ip), vehicle: saline
# [2] = dose: 400.0 mg/kg/injection, schedule: Q01DX001 (ip), vehicle: saline
# [3] = dose: 400.0 mg/kg/injection, schedule: Q04DX003 (ip), vehicle: saline with Tween-80
# [4] = dose: 12.5 mg/kg/injection, schedule: Q04DX003 (ip), vehicle: Klucel (hydroxypropylcellulose) (HPC)
smiles,measurement,setting,value
Cc1ccc(C(C)C)cc1OCO,survivor count,"dose: 45.0 mg/kg/injection, schedule: Q01DX Z (ip), vehicle: methylcellulose (MC)",3 of 6
CC1CC(C)/C(=N/N(C)C)C(C(O)CC2CC(=O)NC(=O)C2)C1 (stereo not drawn),T/C,"dose: 175.0 mg/kg/injection, schedule: Q01DX Z (ip), vehicle: carboxymethylcellulose (CMC)",139 % of control
N#C[SH2+].N#C[SH2+].N#C[SH2+].N#C[SH2+].[Cu+2].c1ccc(C[P+](c2ccccc2)(c2ccccc2)c2ccccc2)cc1,survivor count,"dose: 12.0 mg/kg/injection, schedule: Q01DX009 (ip), vehicle: saline",4 of 6
same,survivor count,"dose: 25.0 mg/kg/injection, schedule: Q01DX009 (ip), vehicle: saline",4 of 6
same,survivor count,"dose: 100.0 mg/kg/injection, schedule: Q01DX001 (ip), vehicle: saline",0 of 6
same,survivor count,[1],0 of 6
same,survivor count,[2],0 of 6
CN/N=C/c1ccc([N+](=O)[O-])cc1,survivor count,"dose: 400.0 mg/kg/injection, schedule: Q04DX002 (ip), vehicle: DMSO",0 of 3
Cc1ccc([N+](=O)[O-])c(P(=O)(O)O)c1,survivor count,"dose: 200.0 mg/kg/injection, schedule: Q04DX003 (ip), vehicle: saline with Tween-80",3 of 6
same,survivor count,[3],3 of 6
CC1CN=C(c2ccc(O)cc2)S1 (stereo not drawn),survivor count,"dose: 400.0 mg/kg/injection, schedule: Q01DX005 (ip), vehicle: saline",3 of 3
O=[As](O)(CC(O)c1ccccc1)c1ccccc1 (stereo not drawn),survivor count,"dose: 25.0 mg/kg/injection, schedule: Q01DX001 (ip), vehicle: saline with Tween-80",4 of 6
same,survivor count,"dose: 100.0 mg/kg/injection, schedule: Q01DX001 (ip), vehicle: saline with Tween-80",0 of 6
same,survivor count,"dose: 200.0 mg/kg/injection, schedule: Q01DX001 (ip), vehicle: saline with Tween-80",0 of 6
same,survivor count,"dose: 400.0 mg/kg/injection, schedule: Q01DX001 (ip), vehicle: saline with Tween-80",0 of 6
CCCCCCCCCCC(N)P(=O)(O)O (stereo not drawn),survivor count,"dose: 75.0 mg/kg/injection, schedule: Q01DX001 (ip), vehicle: saline",6 of 6
same,survivor count,"dose: 150.0 mg/kg/injection, schedule: Q01DX001 (ip), vehicle: saline",6 of 6
CCN(CC)C(=S)Oc1ccc(OC(=S)N(CC)CC)cc1,survivor count,"dose: 100.0 mg/kg/injection, schedule: Q04DX003 (ip), vehicle: saline with Tween-80",6 of 6
CN(C)C1C(=O)C(C(=O)NCNC(CCS)C(=O)O)=C(O)C2(O)C(=O)C3=C(O)c4c(O)cccc4C(C)(O)C3CC12 (stereo not drawn),T/C,"dose: 640.0 mg/kg/injection, schedule: Q01DX Z (ip), vehicle: saline",125 % of control
CC(=O)Oc1cc(OC(C)=O)c2ccccc2c1OC(C)=O,survivor count,[4],6 of 6
same,survivor count,"dose: 25.0 mg/kg/injection, schedule: Q04DX003 (ip), vehicle: Klucel (hydroxypropylcellulose) (HPC)",6 of 6
same,survivor count,"dose: 50.0 mg/kg/injection, schedule: Q04DX003 (ip), vehicle: Klucel (hydroxypropylcellulose) (HPC)",3 of 6
same,survivor count,"dose: 100.0 mg/kg/injection, schedule: Q01DX001 (ip), vehicle: Klucel (hydroxypropylcellulose) (HPC)",2 of 6
same,survivor count,"dose: 200.0 mg/kg/injection, schedule: Q01DX001 (ip), vehicle: Klucel (hydroxypropylcellulose) (HPC)",1 of 6
same,survivor count,"dose: 400.0 mg/kg/injection, schedule: Q01DX001 (ip), vehicle: Klucel (hydroxypropylcellulose) (HPC)",0 of 6
O=C1C2CCC(=O)N2c2ccccc2S(=O)(=O)C1c1ccccc1 (stereo not drawn),survivor count,[4],6 of 6
Cc1nc(N)[nH]c(=O)c1CCC(=O)O,survivor count,"dose: 200.0 mg/kg/injection, schedule: Q04DX003 (ip), vehicle: saline",2 of 6
Cc1cc(C)c2ccc(NC(=O)CCC(=O)O)nc2n1,survivor count,[1],2 of 6
same,survivor count,[2],2 of 6
Cc1cc(I)ccc1NC(=S)Nc1ccccc1F,survivor count,[3],3 of 6
CC(Oc1ccccc1)C(=O)NC(=S)Nc1cc(Cl)ccc1Cl (stereo not drawn),survivor count,"dose: 400.0 mg/kg/injection, schedule: Q01DX001 (ip), vehicle: other",6 of 6
same,survivor count,"dose: 400.0 mg/kg/injection, schedule: Q01DX009 (ip), vehicle: other",1 of 3
same,survivor count,"dose: 400.0 mg/kg/injection, schedule: Q04DX002 (ip), vehicle: other",3 of 3

# Source: PubChem BioAssay AID248 (DTP/NCI, 2004)
